Measurements as given in paper PMC4951750.

Experiments:
[1] = target: T1, SOX9 (a.a. 1-300) (Homo sapiens) (UniProt P48436); experiment: EMSA; conditions: 20 mM HEPES pH 7.9, 50 mM KCl, 0.1% NP-40, 0.5 mM EDTA, 40 mM DTT, 1 mM PMSF, 30 ug BSA, 20 ng poly(dG-dC), 5 fmol probe, 20 ng SOX9, 25 ul, 10 min at 37 C, recombinant protein, residues 1-300, protein details: His-tag (pET23 vector), label: 32P-dCTP by Klenow fill-in
T1 sequence (looked up): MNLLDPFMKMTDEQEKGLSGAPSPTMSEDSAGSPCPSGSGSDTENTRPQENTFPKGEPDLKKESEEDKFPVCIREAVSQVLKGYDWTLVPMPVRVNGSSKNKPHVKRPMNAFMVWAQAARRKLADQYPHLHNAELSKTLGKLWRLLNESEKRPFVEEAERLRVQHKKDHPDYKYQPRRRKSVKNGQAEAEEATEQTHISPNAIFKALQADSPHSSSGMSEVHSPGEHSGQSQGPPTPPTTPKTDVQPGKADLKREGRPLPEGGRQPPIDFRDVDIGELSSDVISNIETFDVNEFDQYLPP

[2] = target: T1, SOX9 (a.a. 1-300) (Homo sapiens); experiment: EMSA supershift; conditions: anti-SOX9 antibody, Cy3 probe; 20 mM HEPES pH 7.9, 50 mM KCl, 0.1% NP-40, 0.5 mM EDTA, 40 mM DTT, 1 mM PMSF, 30 ug BSA, 20 ng poly(dG-dC), 5 fmol probe, 20 ng SOX9, 25 ul, 10 min at 37 C; recombinant protein; residues 1-300; protein details: His-tag (pET23 vector); label: 32P-dCTP by Klenow fill-in, 5' Cy3 in Fig. S1

Row | Sequence | binding result ([1]; bound weakly) | binding result ([1]; 5' Cy3 in Fig. S1) | binding result [2] | binding result ([1]; slightly reduced vs Probe A)
1 | GGCCTGTTTGTGTAGGACTCCAGCCAGTTCT (double strand) | binds more weakly | – | – | –
2 | GGCCTGTTTGTGTAGGACTCCATTCAGTTCT (double strand) [Ctgf Probe B (-88/-60), printed as Probe A in Methods] | – | binds | binds | –
3 | GGCGCTTGAGAAAAGCCCCATTCATGAGAGG (double strand) [Col2a1 intron 1 probe] | – | binds | binds | –
4 | GGTTGTGTAGGACTCCATTCAGTTCTGCGGC (double strand) | – | – | – | binds more weakly
5 | GGTTGTGTAGGACTCCATTCAGTTCTTTGGC (double strand) [Ctgf Probe A (-83/-55), printed as Probe B in Methods] | – | binds | binds | –

The exact form of at least one protein or probe is not confirmed. For some assays here: The comparison behind a weaker result is the experiment's own reference, which may not be listed here. Where a protein sequence is shown, tags need not be part of it. For some assays here: At least one verdict was read from the data and is not stated in words by the source.
